Measurements published in paper PMC9433385.
These are yes or no findings as the source states them, for the method shown. For some assays here: Binding seen in cells or lysates may run through a third protein. Some entries that bind do so weakly or less than the wild type. For some assays here: Tags and fused reporters may be left off the sequences shown. Blank lines part the entries; values can stand above or below the binder they belong to.

Chains of the proteins cited; added tags and fusions are not shown.
UniProt Q99J09: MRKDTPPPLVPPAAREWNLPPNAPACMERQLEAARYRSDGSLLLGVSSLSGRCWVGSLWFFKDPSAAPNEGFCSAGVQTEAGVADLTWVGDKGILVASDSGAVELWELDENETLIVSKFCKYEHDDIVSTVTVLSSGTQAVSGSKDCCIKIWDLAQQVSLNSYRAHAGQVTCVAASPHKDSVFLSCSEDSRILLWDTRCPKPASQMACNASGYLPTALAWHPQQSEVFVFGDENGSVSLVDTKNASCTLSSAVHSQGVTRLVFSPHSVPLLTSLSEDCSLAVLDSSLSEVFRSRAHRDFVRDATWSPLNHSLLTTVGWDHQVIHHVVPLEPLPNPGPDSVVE
UniProt A2A432: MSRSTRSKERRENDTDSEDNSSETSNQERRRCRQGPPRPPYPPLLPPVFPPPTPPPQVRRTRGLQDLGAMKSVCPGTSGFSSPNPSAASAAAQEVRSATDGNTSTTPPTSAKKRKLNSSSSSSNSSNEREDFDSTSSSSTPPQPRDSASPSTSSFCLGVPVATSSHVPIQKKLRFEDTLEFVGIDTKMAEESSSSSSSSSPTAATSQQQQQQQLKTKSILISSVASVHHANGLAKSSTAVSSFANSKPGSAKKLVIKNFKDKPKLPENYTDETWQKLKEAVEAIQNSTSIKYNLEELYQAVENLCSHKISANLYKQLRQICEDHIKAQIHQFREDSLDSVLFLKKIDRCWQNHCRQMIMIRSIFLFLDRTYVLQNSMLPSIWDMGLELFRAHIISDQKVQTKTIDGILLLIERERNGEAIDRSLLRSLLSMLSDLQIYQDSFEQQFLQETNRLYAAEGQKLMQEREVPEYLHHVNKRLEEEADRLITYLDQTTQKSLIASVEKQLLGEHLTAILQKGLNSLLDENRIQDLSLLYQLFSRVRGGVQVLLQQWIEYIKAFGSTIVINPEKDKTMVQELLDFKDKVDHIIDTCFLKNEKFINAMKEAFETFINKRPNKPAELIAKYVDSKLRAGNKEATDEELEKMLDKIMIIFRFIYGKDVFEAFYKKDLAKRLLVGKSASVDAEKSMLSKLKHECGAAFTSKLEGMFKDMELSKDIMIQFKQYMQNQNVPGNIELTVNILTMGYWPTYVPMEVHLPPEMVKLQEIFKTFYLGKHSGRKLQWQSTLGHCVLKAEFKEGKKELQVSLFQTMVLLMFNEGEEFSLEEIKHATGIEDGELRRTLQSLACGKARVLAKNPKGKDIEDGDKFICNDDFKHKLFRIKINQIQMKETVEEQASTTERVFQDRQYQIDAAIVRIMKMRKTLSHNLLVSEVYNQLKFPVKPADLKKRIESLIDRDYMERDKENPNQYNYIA

Columns and labels:
GST-WDR77 = GST-WDR77 (UniProt Q99J09); test: pull-down; purified GST-WDR77 mixed with purified His-tagged protein (25 mM Tris 7.6, 150 mM NaCl, 1 mM DTT), captured with anti-WDR77 antibody and protein A/G sepharose, 2 h at 4 °C; Western blot; both purified
[1] = target: CUL4B (mouse (endogenous in small intestine)) (UniProt A2A432); test: co-IP; protein extracted from small intestine of mice, immunoprecipitated with the indicated antibodies individually and protein A/G sepharose, 2 h at 4 °C; Western blot

binding (GST-WDR77): binds
B1: His-IRGM1 (protein, UniProt Q60766 1-409)
chain: MKPSHSSCEAAPLLPNMAETHYAPLSSAFPFVTSYQTGSSRLPEVSRSTERALREGKLLELVYGIKETVATLSQIPVSIFVTGDSGNGMSSFINALRVIGHDEDASAPTGVVRTTKTRTEYSSSHFPNVVLWDLPGLGATAQTVEDYVEEMKFSTCDLFIIIASEQFSSNHVKLSKIIQSMGKRFYIVWTKLDRDLSTSVLSEVRLLQNIQENIRENLQKEKVKYPPVFLVSSLDPLLYDFPKLRDTLHKDLSNIRCCEPLKTLYGTYEKIVGDKVAVWKQRIANESLKNSLGVRDDDNMGECLKVYRLIFGVDDESVQQVAQSMGTVVMEYKDNMKSQNFYTLRREDWKLRLMTCAIVNAFFRLLRFLPCVCCCLRRLRHKRMLFLVAQDTKNILEKILRDSIFPPQI

binding [1]: binds
B2: immunity-related GTPase family M member 1 (IRGM1) (protein, UniProt Q60766 1-409)
chain: B1 chain
